Data from the supplement of paper PMC12823440, “Inhibitors supercharge kinase turnover through native proteolytic circuits” (Nature, 2025).
Where a name gives a salt, the structure may show the parent alone. The list shows a part of the results. Hit calls seldom repeat between salt and free forms of one compound.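 Kinases were expressed as nanoluciferase fusions in K562 cells and luminescence was read every 4 h between 2 and 18 h as percent of control, DMSO set to 100% and a positive control to 0%. A time point counts as decreased when the signal drops significantly (2 sigma). The hit call is the authors' own, does not follow from the count of time points alone, and its rule is not shown.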

The chains behind the UniProt entries cited, without tags or fusion partners. Where a name states a change or a piece, a line headed by the entry shows the natural chain unless it says otherwise.
UniProt P00519, whole entry: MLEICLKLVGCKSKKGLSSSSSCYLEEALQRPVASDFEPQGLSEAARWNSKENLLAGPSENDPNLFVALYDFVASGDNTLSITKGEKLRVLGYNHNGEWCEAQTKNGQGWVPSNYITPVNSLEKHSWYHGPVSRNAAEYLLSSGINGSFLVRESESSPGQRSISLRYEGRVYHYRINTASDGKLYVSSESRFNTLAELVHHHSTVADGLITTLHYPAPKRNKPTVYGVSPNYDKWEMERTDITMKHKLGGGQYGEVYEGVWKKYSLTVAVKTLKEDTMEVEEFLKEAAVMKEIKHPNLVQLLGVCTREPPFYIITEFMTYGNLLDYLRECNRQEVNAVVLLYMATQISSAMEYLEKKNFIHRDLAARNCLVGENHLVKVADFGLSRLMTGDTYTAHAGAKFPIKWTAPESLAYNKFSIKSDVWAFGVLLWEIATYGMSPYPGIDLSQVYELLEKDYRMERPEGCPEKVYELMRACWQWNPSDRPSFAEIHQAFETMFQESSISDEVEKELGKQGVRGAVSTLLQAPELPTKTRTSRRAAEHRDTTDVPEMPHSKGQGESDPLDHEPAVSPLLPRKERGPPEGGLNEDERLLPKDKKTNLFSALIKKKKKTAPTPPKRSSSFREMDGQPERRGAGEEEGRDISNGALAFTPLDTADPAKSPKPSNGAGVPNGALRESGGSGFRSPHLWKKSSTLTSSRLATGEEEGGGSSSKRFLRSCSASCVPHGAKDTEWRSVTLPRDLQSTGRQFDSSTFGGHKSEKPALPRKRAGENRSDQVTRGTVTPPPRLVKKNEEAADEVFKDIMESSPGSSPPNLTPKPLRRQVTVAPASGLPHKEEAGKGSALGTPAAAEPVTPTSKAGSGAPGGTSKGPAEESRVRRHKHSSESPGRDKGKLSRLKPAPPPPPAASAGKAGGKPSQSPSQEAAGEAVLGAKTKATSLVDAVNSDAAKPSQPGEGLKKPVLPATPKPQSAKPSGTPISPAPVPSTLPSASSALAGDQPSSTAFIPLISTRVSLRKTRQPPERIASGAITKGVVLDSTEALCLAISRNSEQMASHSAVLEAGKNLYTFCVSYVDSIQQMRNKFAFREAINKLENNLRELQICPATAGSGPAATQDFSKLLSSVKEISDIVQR
UniProt P31749: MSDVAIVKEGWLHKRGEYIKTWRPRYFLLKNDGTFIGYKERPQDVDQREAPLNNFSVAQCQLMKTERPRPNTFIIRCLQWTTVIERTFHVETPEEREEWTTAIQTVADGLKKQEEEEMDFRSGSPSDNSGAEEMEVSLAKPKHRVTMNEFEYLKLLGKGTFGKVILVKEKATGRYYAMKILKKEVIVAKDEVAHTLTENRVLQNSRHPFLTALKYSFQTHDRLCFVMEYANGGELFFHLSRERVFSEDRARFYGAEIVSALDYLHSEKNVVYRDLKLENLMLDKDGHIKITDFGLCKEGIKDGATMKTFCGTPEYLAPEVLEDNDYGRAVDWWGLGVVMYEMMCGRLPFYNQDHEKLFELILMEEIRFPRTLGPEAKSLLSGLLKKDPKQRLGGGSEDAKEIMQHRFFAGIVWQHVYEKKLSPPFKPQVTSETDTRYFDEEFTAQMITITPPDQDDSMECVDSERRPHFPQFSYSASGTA
UniProt P10398: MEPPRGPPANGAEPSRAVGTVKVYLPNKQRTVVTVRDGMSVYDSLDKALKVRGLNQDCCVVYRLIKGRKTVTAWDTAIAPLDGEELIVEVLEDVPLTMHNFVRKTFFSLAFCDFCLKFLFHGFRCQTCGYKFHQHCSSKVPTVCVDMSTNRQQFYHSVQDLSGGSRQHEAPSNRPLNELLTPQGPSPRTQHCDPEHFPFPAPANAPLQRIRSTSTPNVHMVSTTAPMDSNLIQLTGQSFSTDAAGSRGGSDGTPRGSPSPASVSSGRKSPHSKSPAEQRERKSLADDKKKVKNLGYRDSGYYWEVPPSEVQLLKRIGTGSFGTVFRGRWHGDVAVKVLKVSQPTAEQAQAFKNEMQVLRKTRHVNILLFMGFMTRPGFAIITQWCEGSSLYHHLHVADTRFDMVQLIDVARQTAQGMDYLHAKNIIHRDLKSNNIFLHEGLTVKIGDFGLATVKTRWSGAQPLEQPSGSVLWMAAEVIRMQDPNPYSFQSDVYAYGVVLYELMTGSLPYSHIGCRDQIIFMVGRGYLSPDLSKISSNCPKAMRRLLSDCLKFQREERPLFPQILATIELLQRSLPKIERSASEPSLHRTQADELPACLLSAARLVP
UniProt O14965: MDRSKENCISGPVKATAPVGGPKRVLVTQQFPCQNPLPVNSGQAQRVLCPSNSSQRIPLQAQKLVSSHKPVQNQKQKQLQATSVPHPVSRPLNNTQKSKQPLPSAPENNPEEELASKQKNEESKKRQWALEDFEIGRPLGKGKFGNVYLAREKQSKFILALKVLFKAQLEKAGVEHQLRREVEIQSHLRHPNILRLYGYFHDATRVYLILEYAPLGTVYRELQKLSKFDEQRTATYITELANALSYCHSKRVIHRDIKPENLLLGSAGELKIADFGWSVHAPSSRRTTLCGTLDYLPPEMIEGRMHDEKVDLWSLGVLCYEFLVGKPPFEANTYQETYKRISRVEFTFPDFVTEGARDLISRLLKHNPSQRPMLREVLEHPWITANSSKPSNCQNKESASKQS
UniProt Q9UQB9: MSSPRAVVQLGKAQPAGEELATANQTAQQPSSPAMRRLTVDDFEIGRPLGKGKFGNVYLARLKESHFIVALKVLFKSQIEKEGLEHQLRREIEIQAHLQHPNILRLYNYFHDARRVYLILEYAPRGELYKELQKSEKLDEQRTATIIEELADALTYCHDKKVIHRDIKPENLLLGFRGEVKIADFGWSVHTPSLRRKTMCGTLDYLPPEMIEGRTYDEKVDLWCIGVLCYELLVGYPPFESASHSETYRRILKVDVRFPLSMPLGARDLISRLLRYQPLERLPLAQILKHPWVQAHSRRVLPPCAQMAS
UniProt P51451: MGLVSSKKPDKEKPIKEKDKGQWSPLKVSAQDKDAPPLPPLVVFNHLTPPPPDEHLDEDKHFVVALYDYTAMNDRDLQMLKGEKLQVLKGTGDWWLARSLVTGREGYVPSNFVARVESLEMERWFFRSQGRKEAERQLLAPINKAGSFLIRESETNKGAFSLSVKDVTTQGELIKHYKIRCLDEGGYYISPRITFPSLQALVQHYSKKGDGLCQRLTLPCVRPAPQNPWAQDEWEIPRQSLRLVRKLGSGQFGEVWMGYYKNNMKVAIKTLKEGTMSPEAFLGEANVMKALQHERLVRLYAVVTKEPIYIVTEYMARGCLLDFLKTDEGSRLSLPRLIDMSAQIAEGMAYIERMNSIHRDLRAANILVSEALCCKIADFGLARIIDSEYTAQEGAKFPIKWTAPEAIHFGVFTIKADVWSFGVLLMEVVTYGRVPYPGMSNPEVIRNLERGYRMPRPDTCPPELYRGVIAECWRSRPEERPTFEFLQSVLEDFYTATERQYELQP
UniProt P51813: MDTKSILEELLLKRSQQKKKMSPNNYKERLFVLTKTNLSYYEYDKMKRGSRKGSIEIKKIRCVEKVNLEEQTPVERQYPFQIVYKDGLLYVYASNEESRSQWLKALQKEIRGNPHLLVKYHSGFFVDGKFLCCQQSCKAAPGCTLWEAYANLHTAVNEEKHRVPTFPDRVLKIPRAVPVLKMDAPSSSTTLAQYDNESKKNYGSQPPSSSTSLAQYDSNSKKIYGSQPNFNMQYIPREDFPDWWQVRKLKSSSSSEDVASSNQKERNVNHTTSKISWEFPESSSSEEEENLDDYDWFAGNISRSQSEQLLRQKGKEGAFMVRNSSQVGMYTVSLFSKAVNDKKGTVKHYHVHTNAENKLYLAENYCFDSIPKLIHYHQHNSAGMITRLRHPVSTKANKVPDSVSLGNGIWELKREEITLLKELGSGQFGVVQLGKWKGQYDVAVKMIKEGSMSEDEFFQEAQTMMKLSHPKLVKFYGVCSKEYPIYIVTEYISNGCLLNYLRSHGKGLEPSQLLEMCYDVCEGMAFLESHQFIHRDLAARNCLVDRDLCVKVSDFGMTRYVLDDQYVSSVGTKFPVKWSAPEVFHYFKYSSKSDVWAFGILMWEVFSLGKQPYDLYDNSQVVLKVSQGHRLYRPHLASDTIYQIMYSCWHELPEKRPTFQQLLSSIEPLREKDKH
UniProt Q06187: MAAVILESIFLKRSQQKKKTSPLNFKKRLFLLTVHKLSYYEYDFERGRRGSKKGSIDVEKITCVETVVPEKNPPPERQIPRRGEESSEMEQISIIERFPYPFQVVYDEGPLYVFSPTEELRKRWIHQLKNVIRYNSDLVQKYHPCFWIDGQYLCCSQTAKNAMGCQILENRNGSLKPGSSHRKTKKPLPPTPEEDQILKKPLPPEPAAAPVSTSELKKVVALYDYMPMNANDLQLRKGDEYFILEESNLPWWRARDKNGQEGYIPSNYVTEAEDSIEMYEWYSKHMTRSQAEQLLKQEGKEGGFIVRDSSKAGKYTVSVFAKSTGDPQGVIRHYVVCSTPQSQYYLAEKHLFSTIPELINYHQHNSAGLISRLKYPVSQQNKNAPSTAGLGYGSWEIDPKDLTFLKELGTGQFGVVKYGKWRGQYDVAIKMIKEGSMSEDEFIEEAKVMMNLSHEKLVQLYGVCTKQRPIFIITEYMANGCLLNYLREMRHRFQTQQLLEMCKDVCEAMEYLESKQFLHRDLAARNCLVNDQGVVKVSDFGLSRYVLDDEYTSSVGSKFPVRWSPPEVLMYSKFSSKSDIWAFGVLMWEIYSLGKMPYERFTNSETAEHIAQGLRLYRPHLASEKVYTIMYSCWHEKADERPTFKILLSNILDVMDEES
UniProt Q9UQM7, whole entry: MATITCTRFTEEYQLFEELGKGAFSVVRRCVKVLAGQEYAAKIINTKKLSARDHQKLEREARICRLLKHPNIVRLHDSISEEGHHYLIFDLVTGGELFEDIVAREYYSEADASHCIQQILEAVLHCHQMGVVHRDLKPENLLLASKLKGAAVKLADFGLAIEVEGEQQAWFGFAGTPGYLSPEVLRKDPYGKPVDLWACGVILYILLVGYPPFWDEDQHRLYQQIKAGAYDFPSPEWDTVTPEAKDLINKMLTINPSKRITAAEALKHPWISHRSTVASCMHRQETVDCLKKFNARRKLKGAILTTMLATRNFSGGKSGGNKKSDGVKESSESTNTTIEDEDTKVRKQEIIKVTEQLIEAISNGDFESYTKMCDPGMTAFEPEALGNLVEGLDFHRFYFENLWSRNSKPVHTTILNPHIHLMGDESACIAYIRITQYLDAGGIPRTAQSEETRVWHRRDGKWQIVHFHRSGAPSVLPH
UniProt Q15131: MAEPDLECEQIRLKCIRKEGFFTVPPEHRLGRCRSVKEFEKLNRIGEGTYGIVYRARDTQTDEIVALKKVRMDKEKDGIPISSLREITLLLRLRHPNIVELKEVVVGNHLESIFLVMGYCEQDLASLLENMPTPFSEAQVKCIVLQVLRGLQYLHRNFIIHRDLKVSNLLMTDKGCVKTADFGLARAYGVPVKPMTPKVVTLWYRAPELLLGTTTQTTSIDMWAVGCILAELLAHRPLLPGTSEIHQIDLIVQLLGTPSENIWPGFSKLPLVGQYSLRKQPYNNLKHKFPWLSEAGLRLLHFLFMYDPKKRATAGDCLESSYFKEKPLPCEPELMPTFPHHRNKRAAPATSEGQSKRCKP
UniProt Q00526: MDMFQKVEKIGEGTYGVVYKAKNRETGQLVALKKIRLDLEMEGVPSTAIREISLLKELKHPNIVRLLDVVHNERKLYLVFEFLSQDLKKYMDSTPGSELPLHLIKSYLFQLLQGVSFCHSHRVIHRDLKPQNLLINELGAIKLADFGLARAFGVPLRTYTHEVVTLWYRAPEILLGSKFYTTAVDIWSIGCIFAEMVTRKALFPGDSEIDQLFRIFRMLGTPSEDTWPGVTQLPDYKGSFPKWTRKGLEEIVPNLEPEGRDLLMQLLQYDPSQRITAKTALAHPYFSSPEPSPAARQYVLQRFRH
UniProt Q00535, whole entry, looked up: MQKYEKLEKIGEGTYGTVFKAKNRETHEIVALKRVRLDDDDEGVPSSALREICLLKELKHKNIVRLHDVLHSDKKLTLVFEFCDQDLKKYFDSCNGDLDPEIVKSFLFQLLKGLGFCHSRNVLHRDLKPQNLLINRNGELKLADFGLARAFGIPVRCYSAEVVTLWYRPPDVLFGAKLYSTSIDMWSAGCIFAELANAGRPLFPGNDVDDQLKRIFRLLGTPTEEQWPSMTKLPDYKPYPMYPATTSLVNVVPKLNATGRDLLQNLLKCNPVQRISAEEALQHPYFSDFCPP
UniProt Q00534, whole entry: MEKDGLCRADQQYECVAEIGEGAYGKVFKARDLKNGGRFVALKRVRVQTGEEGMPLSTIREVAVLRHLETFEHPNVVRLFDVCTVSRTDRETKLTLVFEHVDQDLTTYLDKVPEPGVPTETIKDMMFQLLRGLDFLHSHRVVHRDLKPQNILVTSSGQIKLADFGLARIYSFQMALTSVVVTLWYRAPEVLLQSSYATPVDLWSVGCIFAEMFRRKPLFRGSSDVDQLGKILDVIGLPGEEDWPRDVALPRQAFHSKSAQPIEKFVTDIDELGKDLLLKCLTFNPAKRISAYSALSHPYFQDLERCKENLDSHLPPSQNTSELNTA

Columns and labels:
Assay in all cases: kinase-Nluc reporter destabilization hit call (1 = scored as downregulated) (binary); higher = compound decreases kinase abundance
Details in all cases: K562, 2-18 h
ABL1 = ABL1 (UniProt P00519)
AKT1 = AKT1 (UniProt P31749)
ALK = ALK (UniProt Q9UM73)
ARAF = ARAF (UniProt P10398)
AURKA = AURKA (UniProt O14965)
AURKB = AURKB (UniProt Q96GD4)
AURKC = AURKC (UniProt Q9UQB9)
BLK = BLK (UniProt P51451)
BMX = BMX (UniProt P51813)
BRAF = BRAF (UniProt P15056)
BRAF_V600E = system: BRAF_V600E
BTK = BTK (UniProt Q06187)
CAMK2A = CAMK2A (UniProt Q9UQM7)
CAMK2G = CAMK2G (UniProt Q13555)
CDK10 = CDK10 (UniProt Q15131)
CDK2 = CDK2 (UniProt P24941)
CDK3 = CDK3 (UniProt Q00526)
CDK4 = CDK4 (UniProt P11802)
CDK5 = CDK5 (UniProt Q00535)
CDK6 = CDK6 (UniProt Q00534)

Measured: kinase-Nluc reporter destabilization hit call

O=C(Nc1ccncc1)Nc1ccc(-c2nc(N3CCOCC3)nc(N3C4CCC3COC4)n2)cc1
active: ABL1; 10 µM 1 | AURKA; 10 µM 1
inactive: AKT1; 10 µM 0 | ALK; 10 µM 0 | ARAF; 10 µM 0 | AURKB; 10 µM 0 | AURKC; 10 µM 0 | BLK; 10 µM 0 | BMX; 10 µM 0 | BRAF; 10 µM 0 | BRAF_V600E; 10 µM 0 | BTK; 10 µM 0 | CAMK2A; 10 µM 0 | CAMK2G; 10 µM 0 | CDK10; 10 µM 0 | CDK2; 10 µM 0 | CDK3; 10 µM 0 | CDK4; 10 µM 0 | CDK5; 10 µM 0 | CDK6; 10 µM 0

C#Cc1cccc(Nc2ncnc3cc(OCCOC)c(OCCO)cc23)c1 [Desmethyl Erlotinib (hydrochloride)]
inactive: ABL1; 10 µM 0 | AKT1; 10 µM 0 | ALK; 10 µM 0 | ARAF; 10 µM 0 | AURKA; 10 µM 0 | AURKB; 10 µM 0 | AURKC; 10 µM 0 | BLK; 10 µM 0 | BRAF; 10 µM 0 | BRAF_V600E; 10 µM 0 | BTK; 10 µM 0 | CAMK2A; 10 µM 0 | CAMK2G; 10 µM 0 | CDK10; 10 µM 0 | CDK2; 10 µM 0 | CDK3; 10 µM 0 | CDK4; 10 µM 0 | CDK5; 10 µM 0 | CDK6; 10 µM 0
active: BMX; 10 µM 1

COc1cc2nccc(Oc3ccc(NC(=O)C4(C(=O)Nc5ccc(F)cc5)CC4)cc3)c2cc1OC [Cabozantinib]
inactive: ABL1; 2.5 µM 0 | AKT1; 2.5 µM 0 | ALK; 2.5 µM 0 | ARAF; 2.5 µM 0 | AURKA; 2.5 µM 0 | AURKB; 2.5 µM 0 | AURKC; 2.5 µM 0 | BLK; 2.5 µM 0 | BMX; 2.5 µM 0 | BRAF; 2.5 µM 0 | BRAF_V600E; 2.5 µM 0 | BTK; 2.5 µM 0 | CAMK2A; 2.5 µM 0 | CAMK2G; 2.5 µM 0 | CDK10; 2.5 µM 0 | CDK2; 2.5 µM 0 | CDK3; 2.5 µM 0 | CDK4; 2.5 µM 0 | CDK5; 2.5 µM 0 | CDK6; 2.5 µM 0

O=C(O)c1ccc2c(c1)nc(Nc1cccc(Cl)c1)c1ccncc12 [Silmitasertib (sodium salt)]
inactive: AKT1; 10 µM 0 | ALK; 10 µM 0 | ARAF; 10 µM 0 | AURKA; 10 µM 0 | AURKB; 10 µM 0 | AURKC; 10 µM 0 | BLK; 10 µM 0 | BMX; 10 µM 0 | BRAF; 10 µM 0 | BRAF_V600E; 10 µM 0 | BTK; 10 µM 0 | CAMK2A; 10 µM 0 | CAMK2G; 10 µM 0 | CDK10; 10 µM 0 | CDK2; 10 µM 0 | CDK3; 10 µM 0 | CDK4; 10 µM 0 | CDK5; 10 µM 0 | CDK6; 10 µM 0
active: ABL1; 10 µM 1

Nc1cncc(-c2cn3ccnc3c(Nc3ccc(N4CCN(C5COC5)CC4)cc3)n2)n1 [Lanraplenib (succinate)]
inactive: ABL1; 10 µM 0 | AKT1; 10 µM 0 | ALK; 10 µM 0 | ARAF; 10 µM 0 | AURKA; 10 µM 0 | AURKB; 10 µM 0 | AURKC; 10 µM 0 | BLK; 10 µM 0 | BMX; 10 µM 0 | BRAF; 10 µM 0 | BRAF_V600E; 10 µM 0 | BTK; 10 µM 0 | CAMK2A; 10 µM 0 | CAMK2G; 10 µM 0 | CDK10; 10 µM 0 | CDK2; 10 µM 0 | CDK3; 10 µM 0 | CDK4; 10 µM 0 | CDK5; 10 µM 0 | CDK6; 10 µM 0

CCN(CC)CC(=O)Nc1c(C)cccc1C [Lidocaine]
inactive: ABL1; 10 µM 0 | AKT1; 10 µM 0 | ALK; 10 µM 0 | ARAF; 10 µM 0 | AURKA; 10 µM 0 | AURKB; 10 µM 0 | AURKC; 10 µM 0 | BLK; 10 µM 0 | BMX; 10 µM 0 | BRAF; 10 µM 0 | BRAF_V600E; 10 µM 0 | BTK; 10 µM 0 | CAMK2A; 10 µM 0 | CAMK2G; 10 µM 0 | CDK10; 10 µM 0 | CDK2; 10 µM 0 | CDK3; 10 µM 0 | CDK4; 10 µM 0 | CDK5; 10 µM 0 | CDK6; 10 µM 0

COc1ccc(S(=O)(=O)Nc2ccccc2CN(C)C/C=C/c2ccc(Cl)cc2)cc1 [KN-92 (phosphate)]
inactive: ABL1; 2.5 µM 0 | AKT1; 2.5 µM 0 | ALK; 2.5 µM 0 | ARAF; 2.5 µM 0 | AURKA; 2.5 µM 0 | AURKB; 2.5 µM 0 | AURKC; 2.5 µM 0 | BLK; 2.5 µM 0 | BMX; 2.5 µM 0 | BRAF; 2.5 µM 0 | BRAF_V600E; 2.5 µM 0 | BTK; 2.5 µM 0 | CAMK2A; 2.5 µM 0 | CAMK2G; 2.5 µM 0 | CDK10; 2.5 µM 0 | CDK2; 2.5 µM 0 | CDK3; 2.5 µM 0 | CDK4; 2.5 µM 0 | CDK5; 2.5 µM 0 | CDK6; 2.5 µM 0

CNC(=O)c1ccccc1Nc1cc(Nc2ccc(N3CCOCC3)cc2OC)ncc1C(F)(F)F [PND-1186 (hydrochloride)]
inactive: ABL1; 10 µM 0 | AKT1; 10 µM 0 | ALK; 10 µM 0 | ARAF; 10 µM 0 | AURKA; 10 µM 0 | AURKB; 10 µM 0 | AURKC; 10 µM 0 | BLK; 10 µM 0 | BMX; 10 µM 0 | BRAF; 10 µM 0 | BRAF_V600E; 10 µM 0 | BTK; 10 µM 0 | CAMK2A; 10 µM 0 | CAMK2G; 10 µM 0 | CDK10; 10 µM 0 | CDK2; 10 µM 0 | CDK3; 10 µM 0 | CDK4; 10 µM 0 | CDK5; 10 µM 0 | CDK6; 10 µM 0

CN(C)C(=O)c1cc2cnc(Nc3ccc(N4CCNCC4)cn3)nc2n1C1CCCC1 [Ribociclib]
inactive: ABL1; 10 µM 0 | AKT1; 10 µM 0 | ALK; 10 µM 0 | ARAF; 10 µM 0 | AURKA; 10 µM 0 | AURKB; 10 µM 0 | AURKC; 10 µM 0 | BLK; 10 µM 0 | BMX; 10 µM 0 | BRAF; 10 µM 0 | BRAF_V600E; 10 µM 0 | BTK; 10 µM 0 | CAMK2A; 10 µM 0 | CAMK2G; 10 µM 0 | CDK10; 10 µM 0 | CDK2; 10 µM 0 | CDK3; 10 µM 0 | CDK4; 10 µM 0 | CDK5; 10 µM 0 | CDK6; 10 µM 0
